Values from PubChem BioAssay AID1224826 (NIAID, 2016)
Test: 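Genes that change LPS-induced Tnf promoter activity in mouse macrophages when knocked down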 (primary screen). System: RAW264.7 G9 macrophages from mouse bearing reporters for p65 (GFP) and the Tnf promoter (mCherry). Reagents: siRNA pool against mouse genes, 100 nM. Time to read-out: 16 h of LPS stimulation, after 2 days of siRNA transfection. Conditions: bacterial lipopolysaccharide (Salmonella minnesota R595), 10 ng/ml. Measured: 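Nuclear mCherry signal of the Tnf promoter reporter measured by imaging after background removal, scaled to each plate median and turned into robust z-scores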. Reading the numbers: Tnf reporter robust z-score: higher = stronger Tnf promoter reporter signal after LPS; Tnf reporter intensity: higher = stronger Tnf promoter reporter signal. Rule for the call: 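Called active when robust z-score is at most -1.3, matching the median of the Tlr4 knock-down control, or over 3; control wells and wells with under 50 cells never active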. Calls: active = Tnf reporter clearly lowered or raised; inactive = no clear change in Tnf reporter.
This is an unselected part of about 17,000 reagents tested. Over the whole deposit, about 1,110 (6.6%) are marked active. 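Active means lowered or raised reporter signal; replicate intensities are raw and not normalised per plate.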 Entries without a mark were called inactive. Reagents against one gene are numbered here.

Target gene	pool no.	Tnf reporter robust z-score	fewer than 50 cells in well	Tnf reporter intensity, replicate 1	Tnf reporter intensity, replicate 2
Rhoc	1	0.59	enough cells in well	393	231
Cdkl1	1	3.14 (active)	enough cells in well	491	251
Rbmy	1	0.06	enough cells in well	368	174
Tmem40	1	-0.57	enough cells in well	172	125
Fate1	1	1	enough cells in well	254	238
Aff3	1	-0.16	enough cells in well	246	128
Sprr1a	1	2.61	enough cells in well	200	176
Pgghg	1	-0.47	enough cells in well	117	143
Lcn9	1	0.09	enough cells in well	169	212
Fn1	1	0.73	enough cells in well	351	264
Ptbp1	1	-0.15	enough cells in well	203	208
Pex13	1	-1.09	enough cells in well	154	114
Slc24a4	1	-0.4	enough cells in well	66.8	110
Slc22a26	1	-0.21	enough cells in well	171	217
Reg3a	1	3.46 (active)	enough cells in well	230	325
2810025M15Rik	1	0.75	enough cells in well	294	93.7
Wnt9a	1	-0.93	enough cells in well	118	205
A330015D16RIK	1	1.5	enough cells in well	240	251
Nup188	1	-0.51	enough cells in well	162	81.3
Mc1r	1	-0.76	enough cells in well	157	226
Asic4	1	-0.59	enough cells in well	190	126
Gimap3	1	0.1	enough cells in well	197	137
Ppp1r14a	1	-0.71	enough cells in well	184	149
Tmem68	1	-0.68	enough cells in well	140	38.8
Or51b4	1	2.69	enough cells in well	210	196
Adra2a	1	0.04	enough cells in well	197	337
Sema3c	1	0.66	enough cells in well	374	234
Cryaa	1	-1.02	enough cells in well	165	123
AU040320	1	-0.88	enough cells in well	140	96.4

8 neighbouring reagents from above, quoted:
Target gene	pool no.	Tnf reporter robust z-score	fewer than 50 cells in well	Tnf reporter intensity, replicate 1	Tnf reporter intensity, replicate 2
Ptbp1	1	-0.15	enough cells in well	203	208
Pex13	1	-1.09	enough cells in well	154	114
Slc24a4	1	-0.4	enough cells in well	66.8	110
Slc22a26	1	-0.21	enough cells in well	171	217
Reg3a	1	3.46 (active)	enough cells in well	230	325
2810025M15Rik	1	0.75	enough cells in well	294	93.7
Wnt9a	1	-0.93	enough cells in well	118	205
A330015D16RIK	1	1.5	enough cells in well	240	251

Additional results:
Target gene	pool no.	Tnf reporter robust z-score	fewer than 50 cells in well	Tnf reporter intensity, replicate 1	Tnf reporter intensity, replicate 2
Tmem82	1	-0.06	enough cells in well	190	140
Smc5	1		fewer than 50 cells per well; well left out of calls	70.4	74.4
Brcc3dc	1	1.11	enough cells in well	139	247
C1d	1	-0.58	enough cells in well	85.8	138
Slc8b1	1	3.69 (active)	enough cells in well	232	222
Krtap5-1	1	-0.79	enough cells in well	155	87
Gli2	1	-1.1	enough cells in well	150	119
Serpinf2	1	-0.51	enough cells in well	267	148
Tex264	1	2.09	enough cells in well	170	185
Hilpda	1	0.8	enough cells in well	230	168
Psen2	1	0.41	enough cells in well	259	238
Or8b12	1		fewer than 50 cells per well; well left out of calls	78.1	40.9
Or2t45	1	-0.66	enough cells in well	127	103
Ormdl1	1	-0.22	enough cells in well	120	207
Notch3	1	0.05	enough cells in well	289	151
Or10al4	1		fewer than 50 cells per well; well left out of calls	117	183
Tut7	1		fewer than 50 cells per well; well left out of calls	160	139
Tut7	2	2.15	enough cells in well	172	263
Ppil1	1	0.01	enough cells in well	243	197
Sac3d1	1		fewer than 50 cells per well; well left out of calls	166	31.2
Snrnp70	1	0.21	enough cells in well	112	102
Or4c120	1	0.7	enough cells in well	212	202
Fabp3	1	-0.15	enough cells in well	211	226
Hsd17b2	1	1.51	enough cells in well	344	297
Ankle2	1	2.36	enough cells in well	428	150
Vsx1	1	0.09	enough cells in well	190	293
Msn	1	-1.5 (active)	enough cells in well	138	95.3
Dbpht2	1	-0.81	enough cells in well	145	111
Rhobtb2	1	0.45	enough cells in well	405	203
